The list shows a part of the results. Most entries show no effect beyond the scatter of the controls.
Compound: Cc1nc(Nc2ncc(C(=O)Nc3c(C)cccc3Cl)s2)cc(N2CCN(CCO)CC2)n1 [dasatinib]
Experiment: log2 fold change of tryptic peptide abundance, ligand vs vehicle (limited proteolysis) (log2 ratio); higher = more trypsin-susceptible (destabilized)
Details: ligand concentration: 5 uM; sample: K562 cleared lysate

Sequences of proteins named here, by UniProt entry; tags and fusion partners are left off. A change or cut given only in a name is not applied to a line headed by its entry.
UniProt Q658P3: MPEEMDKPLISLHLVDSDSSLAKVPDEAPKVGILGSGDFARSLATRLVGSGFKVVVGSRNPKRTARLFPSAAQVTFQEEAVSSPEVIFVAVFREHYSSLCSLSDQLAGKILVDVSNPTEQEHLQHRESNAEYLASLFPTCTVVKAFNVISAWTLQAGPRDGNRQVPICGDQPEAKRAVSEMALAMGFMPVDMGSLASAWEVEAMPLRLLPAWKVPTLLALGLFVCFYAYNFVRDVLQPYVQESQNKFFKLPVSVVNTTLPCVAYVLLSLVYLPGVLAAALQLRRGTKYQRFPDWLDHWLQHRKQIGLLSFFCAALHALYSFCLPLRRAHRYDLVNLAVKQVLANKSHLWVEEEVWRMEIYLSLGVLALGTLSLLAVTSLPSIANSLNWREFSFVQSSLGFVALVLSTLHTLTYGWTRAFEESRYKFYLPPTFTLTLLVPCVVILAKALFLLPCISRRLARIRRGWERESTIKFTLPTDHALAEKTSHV
UniProt Q6P1N0: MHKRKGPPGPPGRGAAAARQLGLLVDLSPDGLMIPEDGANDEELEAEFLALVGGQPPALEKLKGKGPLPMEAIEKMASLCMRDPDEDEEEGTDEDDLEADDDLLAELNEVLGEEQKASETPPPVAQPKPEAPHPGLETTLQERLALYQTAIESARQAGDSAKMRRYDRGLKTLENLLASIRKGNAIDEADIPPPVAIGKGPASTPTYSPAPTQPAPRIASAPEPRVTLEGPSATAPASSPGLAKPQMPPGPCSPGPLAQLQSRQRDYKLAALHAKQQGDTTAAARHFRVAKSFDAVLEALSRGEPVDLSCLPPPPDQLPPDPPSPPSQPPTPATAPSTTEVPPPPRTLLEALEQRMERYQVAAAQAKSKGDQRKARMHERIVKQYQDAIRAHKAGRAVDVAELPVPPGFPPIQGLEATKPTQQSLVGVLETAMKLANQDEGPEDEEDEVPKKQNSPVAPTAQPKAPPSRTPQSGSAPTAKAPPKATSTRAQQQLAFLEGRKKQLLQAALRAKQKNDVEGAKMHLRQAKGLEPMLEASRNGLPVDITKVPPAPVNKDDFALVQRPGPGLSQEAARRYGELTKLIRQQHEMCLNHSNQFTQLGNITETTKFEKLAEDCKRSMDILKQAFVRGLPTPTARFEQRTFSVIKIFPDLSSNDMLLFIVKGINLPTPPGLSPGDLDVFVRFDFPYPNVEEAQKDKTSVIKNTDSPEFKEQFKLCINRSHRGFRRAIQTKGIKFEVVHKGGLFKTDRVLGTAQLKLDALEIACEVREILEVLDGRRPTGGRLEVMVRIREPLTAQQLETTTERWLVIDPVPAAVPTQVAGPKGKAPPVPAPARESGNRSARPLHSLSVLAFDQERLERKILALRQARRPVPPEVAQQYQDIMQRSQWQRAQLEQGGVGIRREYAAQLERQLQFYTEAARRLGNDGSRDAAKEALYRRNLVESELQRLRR
UniProt Q66K64, whole entry: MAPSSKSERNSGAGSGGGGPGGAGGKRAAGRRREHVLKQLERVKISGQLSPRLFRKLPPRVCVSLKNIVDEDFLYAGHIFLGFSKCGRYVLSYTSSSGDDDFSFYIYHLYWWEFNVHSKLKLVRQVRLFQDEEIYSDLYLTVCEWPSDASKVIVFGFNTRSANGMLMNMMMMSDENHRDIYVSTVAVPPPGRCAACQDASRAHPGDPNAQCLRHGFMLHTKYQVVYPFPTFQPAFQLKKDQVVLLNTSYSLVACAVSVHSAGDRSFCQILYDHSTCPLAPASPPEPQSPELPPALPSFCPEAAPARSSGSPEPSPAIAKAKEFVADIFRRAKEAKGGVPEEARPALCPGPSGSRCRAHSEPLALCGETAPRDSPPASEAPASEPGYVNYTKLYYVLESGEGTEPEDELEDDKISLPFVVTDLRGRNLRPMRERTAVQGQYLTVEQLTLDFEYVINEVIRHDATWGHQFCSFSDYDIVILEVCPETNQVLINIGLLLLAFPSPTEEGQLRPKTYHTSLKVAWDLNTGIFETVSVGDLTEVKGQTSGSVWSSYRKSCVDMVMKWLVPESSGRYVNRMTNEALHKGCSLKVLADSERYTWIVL
UniProt Q6NSI8: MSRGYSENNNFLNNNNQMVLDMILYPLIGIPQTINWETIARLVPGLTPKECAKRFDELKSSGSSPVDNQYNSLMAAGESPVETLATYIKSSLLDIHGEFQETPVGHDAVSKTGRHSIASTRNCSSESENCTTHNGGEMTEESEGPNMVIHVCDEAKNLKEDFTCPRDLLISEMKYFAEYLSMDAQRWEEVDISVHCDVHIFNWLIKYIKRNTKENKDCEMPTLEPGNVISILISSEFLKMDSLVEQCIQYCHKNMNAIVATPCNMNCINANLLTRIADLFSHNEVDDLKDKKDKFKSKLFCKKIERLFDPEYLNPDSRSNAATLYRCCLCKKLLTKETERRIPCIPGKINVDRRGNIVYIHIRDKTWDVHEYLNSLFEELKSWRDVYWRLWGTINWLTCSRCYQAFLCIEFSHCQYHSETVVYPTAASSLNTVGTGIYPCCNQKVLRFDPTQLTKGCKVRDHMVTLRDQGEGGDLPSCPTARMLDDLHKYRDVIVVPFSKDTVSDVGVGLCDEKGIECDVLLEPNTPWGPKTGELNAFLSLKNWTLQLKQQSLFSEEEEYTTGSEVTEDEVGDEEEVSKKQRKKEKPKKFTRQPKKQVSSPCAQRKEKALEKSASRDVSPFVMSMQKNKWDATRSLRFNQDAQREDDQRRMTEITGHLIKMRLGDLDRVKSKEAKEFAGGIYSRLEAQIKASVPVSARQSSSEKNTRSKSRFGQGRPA
UniProt Q6PII3: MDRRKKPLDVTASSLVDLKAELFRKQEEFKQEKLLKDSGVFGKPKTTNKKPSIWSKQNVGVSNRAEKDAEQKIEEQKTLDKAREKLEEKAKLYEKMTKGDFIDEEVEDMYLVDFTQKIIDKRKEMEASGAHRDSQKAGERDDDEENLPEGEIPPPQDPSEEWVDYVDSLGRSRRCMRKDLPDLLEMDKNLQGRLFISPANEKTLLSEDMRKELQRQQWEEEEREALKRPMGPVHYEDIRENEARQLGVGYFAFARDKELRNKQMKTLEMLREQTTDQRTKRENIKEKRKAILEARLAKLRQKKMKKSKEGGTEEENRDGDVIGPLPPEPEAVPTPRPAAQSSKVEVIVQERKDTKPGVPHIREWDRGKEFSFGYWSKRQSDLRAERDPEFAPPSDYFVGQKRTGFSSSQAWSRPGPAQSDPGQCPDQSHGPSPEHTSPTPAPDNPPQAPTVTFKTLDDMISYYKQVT
UniProt Q68CL5: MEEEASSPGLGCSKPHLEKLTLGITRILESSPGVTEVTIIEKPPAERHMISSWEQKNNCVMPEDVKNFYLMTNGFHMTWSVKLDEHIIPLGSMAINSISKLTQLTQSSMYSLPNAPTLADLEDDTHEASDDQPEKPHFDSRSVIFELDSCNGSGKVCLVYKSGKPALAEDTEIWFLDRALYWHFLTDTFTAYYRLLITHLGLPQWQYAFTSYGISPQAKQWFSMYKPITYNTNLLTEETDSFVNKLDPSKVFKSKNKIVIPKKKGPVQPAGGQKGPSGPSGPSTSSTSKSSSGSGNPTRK
UniProt Q6P597: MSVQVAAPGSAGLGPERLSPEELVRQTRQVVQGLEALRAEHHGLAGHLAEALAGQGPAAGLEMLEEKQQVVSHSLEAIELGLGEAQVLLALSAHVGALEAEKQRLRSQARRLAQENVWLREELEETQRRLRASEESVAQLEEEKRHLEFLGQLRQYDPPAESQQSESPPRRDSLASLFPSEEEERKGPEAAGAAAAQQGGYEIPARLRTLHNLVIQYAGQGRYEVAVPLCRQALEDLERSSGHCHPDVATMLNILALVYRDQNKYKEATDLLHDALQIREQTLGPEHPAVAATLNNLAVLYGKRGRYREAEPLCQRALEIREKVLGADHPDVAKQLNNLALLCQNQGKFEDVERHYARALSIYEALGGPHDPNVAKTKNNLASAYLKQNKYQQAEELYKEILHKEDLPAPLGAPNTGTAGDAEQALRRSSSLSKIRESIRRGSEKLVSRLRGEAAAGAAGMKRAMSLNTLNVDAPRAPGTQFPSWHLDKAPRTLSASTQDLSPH
UniProt Q5VZR4: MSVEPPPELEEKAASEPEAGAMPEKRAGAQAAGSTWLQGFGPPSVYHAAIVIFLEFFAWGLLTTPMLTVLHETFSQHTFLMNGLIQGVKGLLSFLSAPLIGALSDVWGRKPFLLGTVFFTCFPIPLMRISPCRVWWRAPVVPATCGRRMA
UniProt Q6PKH6: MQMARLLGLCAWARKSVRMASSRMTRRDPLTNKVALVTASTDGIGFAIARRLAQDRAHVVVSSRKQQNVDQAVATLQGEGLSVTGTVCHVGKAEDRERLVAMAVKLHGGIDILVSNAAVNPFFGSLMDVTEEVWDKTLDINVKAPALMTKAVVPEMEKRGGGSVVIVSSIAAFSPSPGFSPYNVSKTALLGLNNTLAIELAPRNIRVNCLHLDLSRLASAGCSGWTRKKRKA
UniProt Q6IEG0: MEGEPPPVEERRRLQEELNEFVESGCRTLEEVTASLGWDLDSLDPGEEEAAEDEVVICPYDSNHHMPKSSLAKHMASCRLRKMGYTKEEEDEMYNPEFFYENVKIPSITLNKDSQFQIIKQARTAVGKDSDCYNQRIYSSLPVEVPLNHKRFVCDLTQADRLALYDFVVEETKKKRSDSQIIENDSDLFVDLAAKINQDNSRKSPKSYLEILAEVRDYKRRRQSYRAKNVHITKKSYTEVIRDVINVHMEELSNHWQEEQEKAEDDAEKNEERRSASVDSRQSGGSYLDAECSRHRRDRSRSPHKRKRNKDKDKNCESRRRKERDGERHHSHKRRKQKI
UniProt Q6JQN1: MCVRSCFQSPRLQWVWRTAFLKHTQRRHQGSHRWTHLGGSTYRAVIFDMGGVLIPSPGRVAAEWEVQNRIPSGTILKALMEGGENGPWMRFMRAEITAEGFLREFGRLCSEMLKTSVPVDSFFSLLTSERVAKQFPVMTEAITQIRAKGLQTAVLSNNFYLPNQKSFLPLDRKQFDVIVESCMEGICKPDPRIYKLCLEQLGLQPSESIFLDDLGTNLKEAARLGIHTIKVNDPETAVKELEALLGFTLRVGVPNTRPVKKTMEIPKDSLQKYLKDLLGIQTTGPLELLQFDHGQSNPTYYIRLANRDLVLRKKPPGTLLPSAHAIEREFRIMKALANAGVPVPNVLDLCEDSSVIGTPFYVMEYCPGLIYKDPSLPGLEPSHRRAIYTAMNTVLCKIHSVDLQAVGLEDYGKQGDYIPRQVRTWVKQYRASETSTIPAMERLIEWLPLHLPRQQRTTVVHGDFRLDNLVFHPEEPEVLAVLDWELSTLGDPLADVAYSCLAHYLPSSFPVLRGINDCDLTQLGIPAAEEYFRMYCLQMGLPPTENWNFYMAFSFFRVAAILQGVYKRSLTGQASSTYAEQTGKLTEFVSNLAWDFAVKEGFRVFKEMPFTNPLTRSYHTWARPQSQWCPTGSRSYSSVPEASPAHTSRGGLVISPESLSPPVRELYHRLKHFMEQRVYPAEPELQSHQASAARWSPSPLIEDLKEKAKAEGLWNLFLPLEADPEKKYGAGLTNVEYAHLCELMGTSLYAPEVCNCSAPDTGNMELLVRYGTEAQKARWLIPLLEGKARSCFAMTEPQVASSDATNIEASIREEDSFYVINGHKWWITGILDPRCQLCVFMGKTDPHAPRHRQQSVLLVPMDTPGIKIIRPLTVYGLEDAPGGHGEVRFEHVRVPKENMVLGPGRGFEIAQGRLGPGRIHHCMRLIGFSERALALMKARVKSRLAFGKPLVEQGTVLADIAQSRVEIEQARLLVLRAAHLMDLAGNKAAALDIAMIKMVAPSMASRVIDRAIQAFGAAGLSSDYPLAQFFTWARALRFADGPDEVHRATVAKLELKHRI
UniProt Q6NXE6: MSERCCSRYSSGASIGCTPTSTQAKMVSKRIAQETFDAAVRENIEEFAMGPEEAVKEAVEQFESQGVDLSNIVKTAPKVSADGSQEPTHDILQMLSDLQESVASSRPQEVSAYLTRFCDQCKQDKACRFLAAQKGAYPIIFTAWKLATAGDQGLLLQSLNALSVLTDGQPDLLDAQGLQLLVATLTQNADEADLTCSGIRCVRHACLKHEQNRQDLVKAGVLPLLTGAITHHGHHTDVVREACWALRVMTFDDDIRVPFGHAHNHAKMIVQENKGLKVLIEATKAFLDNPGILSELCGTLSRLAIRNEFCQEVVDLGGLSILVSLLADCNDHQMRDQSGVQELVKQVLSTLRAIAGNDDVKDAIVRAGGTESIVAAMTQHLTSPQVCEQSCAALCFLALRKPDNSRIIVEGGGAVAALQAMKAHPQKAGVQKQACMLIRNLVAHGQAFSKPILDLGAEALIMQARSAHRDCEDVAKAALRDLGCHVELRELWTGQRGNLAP
UniProt Q6IQ22: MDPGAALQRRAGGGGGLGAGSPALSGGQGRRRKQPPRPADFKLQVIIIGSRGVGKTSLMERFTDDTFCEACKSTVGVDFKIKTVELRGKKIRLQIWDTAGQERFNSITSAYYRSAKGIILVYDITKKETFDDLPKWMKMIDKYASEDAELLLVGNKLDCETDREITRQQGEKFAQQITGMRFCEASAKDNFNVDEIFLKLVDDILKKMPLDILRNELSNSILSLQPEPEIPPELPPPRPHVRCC

Target	log2 fold change
UniProt Q6PJG6 (peptide sequence: SCDLLLFLRDK, peptide start residue: 719)	-0.421
ANKRD11 (peptide sequence: AILLENDLSTENKLK, peptide start residue: 671) (UniProt Q6UB99)	-0.502
RNF20 (peptide sequence: IKSNQIHK, peptide start residue: 768) (UniProt Q5VTR2)	0.221
STEAP3 (peptide sequence: QVPICGDQPEAKR, peptide start residue: 164) (UniProt Q658P3)	0.387
TRIM65 (peptide sequence: TEGRCVCSVCTVRECR, peptide start residue: 108) (UniProt Q6PJ69)	0.58
ZNF318 (peptide sequence: KIYELAVWDENKK, peptide start residue: 1952) (UniProt Q5VUA4)	-0.218
UniProt Q68CZ6 (peptide sequence: LNHLLTDILADVK, peptide start residue: 542)	-0.211
UniProt Q6NT16 (peptide sequence: SQNILSTEEER, peptide start residue: 438)	0.137
SLX4IP (peptide sequence: NCSSAEDFDHHGR, peptide start residue: 298) (UniProt Q5VYV7)	-0.264
CTR9 (peptide sequence: TKNILMFTGETEATKEK, peptide start residue: 885) (UniProt Q6PD62)	0.627
UniProt Q6PF04 (peptide sequence: SNLSLVNQNK, peptide start residue: 139)	-0.304
UniProt Q6P2P2 (peptide sequence: DEAAGYFHK, peptide start residue: 118)	0.305
CC2D1A (peptide sequence: SARPLHSLSVLAFDQER, peptide start residue: 841) (UniProt Q6P1N0)	-0.252
DCAF15 (peptide sequence: NSGAGSGGGGPGGAGGK, peptide start residue: 10) (UniProt Q66K64)	-0.304
UniProt Q6NSI8 (peptide sequence: KFTRQPK, peptide start residue: 589)	-0.0294
UniProt Q6PII3 (peptide sequence: AEKDAEQKIEEQK, peptide start residue: 65)	-0.343
UniProt Q68CL5 (peptide sequence: GPSGPSGPSTSSTSK, peptide start residue: 275)	-0.309
KLC3 (peptide sequence: YEVAVPLCR, peptide start residue: 223) (UniProt Q6P597)	-0.409
ADAL (peptide sequence: GGPLVAK, peptide start residue: 151) (UniProt Q6DHV7)	0.39
UniProt Q5VZR4 (peptide sequence: AASEPEAGAMPEKR, peptide start residue: 13)	0.0661
UniProt Q6PKH6 (peptide sequence: AVVPEMEK, peptide start residue: 151)	0.25
KLHL17 (peptide sequence: QARPAAPMEGAVQLLSR, peptide start residue: 46) (UniProt Q6TDP4)	0.275
SNRNP48 (peptide sequence: FVCDLTQADR, peptide start residue: 152) (UniProt Q6IEG0)	0.0999
UniProt Q68DI1 (peptide sequence: EGPYVCSDSGK, peptide start residue: 233)	0.277
ACAD10 (peptide sequence: AAALDIAMIK, peptide start residue: 988) (UniProt Q6JQN1)	-0.236
ARMC6 (peptide sequence: AGVLPLLTGAITHHGHHTDVVR, peptide start residue: 219) (UniProt Q6NXE6)	-0.142
RAB12 (peptide sequence: LQVIIIGSR, peptide start residue: 43) (UniProt Q6IQ22)	0.35
NFRKB (peptide sequence: ITPDMMATLAK, peptide start residue: 972) (UniProt Q6P4R8)	-0.26
ATL3 (peptide sequence: DAVVGRPSMDKK, peptide start residue: 528) (UniProt Q6DD88)	0.0271

Reformatted in markdown: part of the list above.

| Target | log2 fold change |
| --- | --- |
| UniProt Q6NSI8 (peptide sequence: KFTRQPK, peptide start residue: 589) | -0.0294 |
| NFRKB (peptide sequence: ITPDMMATLAK, peptide start residue: 972) (UniProt Q6P4R8) | -0.26 |

Reference: the supplement of paper PMC12819154, “High-throughput peptide-centric local stability assay extends protein–ligand identification to membrane proteins, tissues and bacteria” (Nature Structural & Molecular Biology, 2025)
